Data reported in ChEMBL document CHEMBL5696440, “Inhibition of BET recruitment to chromatin as an effective treatment for MLL-fusion leukaemia” (Nature, 2011).

By UniProt entry, the sequences of proteins in these tests, tags left out. Where a name states a change or a piece, a line headed by the entry shows the natural chain unless it says otherwise.
UniProt P11712, whole entry: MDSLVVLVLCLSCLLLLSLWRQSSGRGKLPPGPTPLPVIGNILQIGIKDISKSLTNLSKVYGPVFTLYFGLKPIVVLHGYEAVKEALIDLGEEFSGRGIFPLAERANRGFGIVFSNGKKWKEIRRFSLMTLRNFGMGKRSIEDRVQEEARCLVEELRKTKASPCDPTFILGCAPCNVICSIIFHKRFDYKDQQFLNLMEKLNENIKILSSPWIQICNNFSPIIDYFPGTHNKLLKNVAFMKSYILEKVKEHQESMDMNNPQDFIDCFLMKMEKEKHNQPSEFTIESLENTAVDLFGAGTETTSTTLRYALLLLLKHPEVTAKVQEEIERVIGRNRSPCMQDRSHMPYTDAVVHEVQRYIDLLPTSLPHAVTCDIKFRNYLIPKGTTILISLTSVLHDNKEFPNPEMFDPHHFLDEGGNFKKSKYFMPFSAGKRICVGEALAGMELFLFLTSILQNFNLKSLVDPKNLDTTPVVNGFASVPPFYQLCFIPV
UniProt Q12809: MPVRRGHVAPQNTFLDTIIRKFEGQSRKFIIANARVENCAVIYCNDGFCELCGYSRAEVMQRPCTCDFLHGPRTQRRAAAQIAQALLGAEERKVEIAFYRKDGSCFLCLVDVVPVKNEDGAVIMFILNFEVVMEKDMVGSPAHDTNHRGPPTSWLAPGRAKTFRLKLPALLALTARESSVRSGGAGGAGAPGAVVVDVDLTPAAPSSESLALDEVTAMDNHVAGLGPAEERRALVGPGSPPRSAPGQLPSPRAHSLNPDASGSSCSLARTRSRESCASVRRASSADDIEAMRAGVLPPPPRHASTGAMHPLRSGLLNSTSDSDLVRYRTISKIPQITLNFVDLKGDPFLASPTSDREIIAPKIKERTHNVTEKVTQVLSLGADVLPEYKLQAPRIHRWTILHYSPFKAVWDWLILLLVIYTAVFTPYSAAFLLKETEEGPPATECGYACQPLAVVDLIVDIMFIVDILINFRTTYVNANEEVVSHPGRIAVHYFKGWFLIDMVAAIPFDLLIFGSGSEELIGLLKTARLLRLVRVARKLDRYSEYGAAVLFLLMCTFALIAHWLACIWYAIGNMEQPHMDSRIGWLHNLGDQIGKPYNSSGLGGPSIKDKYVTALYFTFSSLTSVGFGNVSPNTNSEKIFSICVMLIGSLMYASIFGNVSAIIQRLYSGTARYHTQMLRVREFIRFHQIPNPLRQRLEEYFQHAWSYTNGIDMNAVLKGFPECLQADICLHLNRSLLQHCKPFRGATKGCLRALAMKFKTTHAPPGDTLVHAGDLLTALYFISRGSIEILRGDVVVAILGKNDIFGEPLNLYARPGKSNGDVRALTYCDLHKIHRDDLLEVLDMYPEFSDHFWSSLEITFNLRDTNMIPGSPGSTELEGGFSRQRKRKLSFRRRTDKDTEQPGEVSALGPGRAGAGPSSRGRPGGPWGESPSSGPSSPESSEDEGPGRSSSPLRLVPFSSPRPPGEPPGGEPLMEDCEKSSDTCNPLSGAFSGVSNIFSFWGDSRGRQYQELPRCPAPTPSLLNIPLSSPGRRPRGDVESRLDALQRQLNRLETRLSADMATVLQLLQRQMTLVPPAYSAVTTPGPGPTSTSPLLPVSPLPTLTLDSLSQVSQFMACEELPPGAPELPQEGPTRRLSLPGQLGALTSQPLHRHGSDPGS
UniProt P33261, whole entry: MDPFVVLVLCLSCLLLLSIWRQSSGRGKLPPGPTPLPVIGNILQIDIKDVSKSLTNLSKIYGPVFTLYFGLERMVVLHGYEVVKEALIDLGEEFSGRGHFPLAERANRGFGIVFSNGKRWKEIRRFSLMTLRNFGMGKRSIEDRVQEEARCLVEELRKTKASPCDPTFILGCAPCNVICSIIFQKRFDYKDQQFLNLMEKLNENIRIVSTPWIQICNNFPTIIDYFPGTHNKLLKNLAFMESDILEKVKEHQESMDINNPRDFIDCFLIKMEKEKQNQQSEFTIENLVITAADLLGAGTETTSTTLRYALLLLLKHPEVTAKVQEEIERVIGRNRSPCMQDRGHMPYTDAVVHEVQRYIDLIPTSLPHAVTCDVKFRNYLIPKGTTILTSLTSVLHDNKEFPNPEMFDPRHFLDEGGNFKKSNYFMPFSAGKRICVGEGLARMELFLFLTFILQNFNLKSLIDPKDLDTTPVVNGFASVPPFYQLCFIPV

How the values were obtained:
[1] = target: Cytochrome P450 2C9 (Homo sapiens, UniProt P11712)
[2] = target: T1, Voltage-gated inwardly rectifying potassium channel KCNH2 (Homo sapiens, UniProt Q12809)
[3] = target: Cytochrome P450 2C19 (Homo sapiens, UniProt P33261)
[4] = target: T1, Voltage-gated inwardly rectifying potassium channel KCNH2; remark: listed apart in the source

## CCNC(=O)C[C@@H]1N=C(c2ccc(Cl)cc2)c2cc(OC)ccc2-n2c(C)nnc21 [MOLIBRESIB]
[1]
  IC50: > 50 µM
[2]
  IC50: 63.1 µM
[3]
  IC50: > 50 µM
[4]
  IC50: > 100 µM
